In publication PMC12523843, “Kuwanon A Targeted YWHAB in Hepatocellular Carcinoma Cells to Inhibit the Raf/MEK/ERK Signaling Pathway” (Cells, 2025):
These are yes or no findings as the source states them, for the method shown. Binding seen in cells or lysates may run through a third protein. Some entries that bind do so weakly or less than the wild type. Tags and fused reporters may be left off the sequences shown.

Target: T1, FLAG-YWHAB, P31946
T1 chain: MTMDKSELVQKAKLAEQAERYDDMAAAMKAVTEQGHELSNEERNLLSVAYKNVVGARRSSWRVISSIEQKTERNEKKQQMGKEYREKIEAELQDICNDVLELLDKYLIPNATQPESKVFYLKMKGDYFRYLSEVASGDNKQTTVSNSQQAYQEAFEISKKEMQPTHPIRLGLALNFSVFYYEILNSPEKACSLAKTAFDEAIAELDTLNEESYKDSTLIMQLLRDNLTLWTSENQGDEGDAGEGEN
Assay: co-IP; HEK 293T cells overexpressing both tagged proteins; pulled down by anti-FLAG antibody, immunoblotted with anti-MYC antibody; cells treated with DMSO or 25 and 30 uM KA (less co-precipitate with KA)
Conditions: remark: other sources report otherwise

binding: binds
B1: MYC-YWHAB, P31946 1-246 (protein)
chain: MTMDKSELVQKAKLAEQAERYDDMAAAMKAVTEQGHELSNEERNLLSVAYKNVVGARRSSWRVISSIEQKTERNEKKQQMGKEYREKIEAELQDICNDVLELLDKYLIPNATQPESKVFYLKMKGDYFRYLSEVASGDNKQTTVSNSQQAYQEAFEISKKEMQPTHPIRLGLALNFSVFYYEILNSPEKACSLAKTAFDEAIAELDTLNEESYKDSTLIMQLLRDNLTLWTSENQGDEGDAGEGEN
